# Reference: doi:10.1101/2023.11.29.569176
# B1: HptG (protein, UniProt P61184 1-625)
# chain: MAKQVQNFNAEIKQLLDIVIHSLYSHKEIFLRELLSNASDAIDKLKFNSLTHPSLLPENWQPAIRLEPNSETKTLKIIDNGIGMTQEEVVEFIGTIARSGAKAFMQMNAEMKTKPELIGQFGVGFYSAFMVADRVTLHTQKAGSNDGTVWESMGDGTYSLDSVPRPEGTGTTITLHMKDFKEEDEVQNFTDKWVLKSLVKKYSDFIAHPIKMMGETEEETLNSQKALWLKSPSEVTKEEYKEFYQHLTHDWNEPLRTVHYRAEGTMEFNALLYVPGKKPWNYNMRDMEYGLSLYIKRVFIMADCKDLLPPYLRFVKGLVDSSDLSLNVSRELLQQDRQVTQIRKNVTNKALSTLKDLLTKERSAYEDFWTEFGATLKEGLPSDAANKEKLQDLLLFHSTSSDKMTTMDEYVARMKETQKDIYYITGDSLSQVSNSPYLEKLKEKGFEVLLLVDPVDEWVVDALSEFKGKKLQSIMREGLDLDTAEEKQQKEQEKKQAEVTLKPVLESMKKTLESDVKDVVLSDRLTNTPACLVASSADPSAHMQKLMAQMGKEYAGQQVKRIMEINPNHPVFEKMLKASPEQQTKWAEILYAQALLTEGSNLPDPVKFSQQIAELMVQAADSTKH
# B2: MglA (Bd3734) (protein, UniProt Q6MH29 1-197)
# chain: MSFINYNAKEIHCKVVYYGPSLGGKTTNIQWVYQKTAEDQKSKLVALNTDIERTLFFDFLPLNVGDIRGFKTRFHLYTVPGQVVYDASRKLILKGLDGVIFVADSQIERMDENLESLRNLERNLEQQGYDIREIPLIMQYNKRDLPNVASLAELRSALNPYNAPEIEGCASEGRGVFESLKTVSKSIINVLKGGTTL
# Experiments:
# [1] = target: DivIVA-miniTurbo (Bdellovibrio bacteriovorus HD100); assay: proximity labelling
# [2] = target: RomR-miniTurbo (Bdellovibrio bacteriovorus HD100); assay: proximity labelling
Binder,binding [1],binding [2]
B1,binds,–
B2,–,binds

# Results are given in words; binding and its absence hold for the method and conditions named. In cells and extracts the contact can be indirect. A yes stands for co-enrichment or nearness to the bait. Other partners may have been found.
